PubChem BioAssay AID1508597 – Cure First – 2020

Assay: 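Knock-downs altering ovarian cancer cell survival with or without PARP inhibitor rucaparib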 (primary screen)
System: human ovarian carcinoma lines grown from tumours: OCI-P5x (papillary serous) and OCI-C5x (clear cell)
Reagent: siRNA pool against human genes, 1.25 pmol siRNA per well
Timing: 72 h or 96 h, depending on the cell culture
Conditions: rucaparib 20 µM (about IC30) or vehicle, present until read-out
Rucaparib or vehicle: Rucaparib
Cell line: OCI-P5x (serous)
Detection: 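ATP luminescence measured at 72 or 96 h according to the culture, then normalised and expressed as percent viability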
Direction: viability, normalised: higher = more viable cells remaining
Hit rule: 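Active when normalised viability falls below 80 percent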
Calls: active = viability under 80%; inactive = viability 80% or more
This is a random part of the about 2,100 reagents, under one of the conditions tested. 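Calls flag viability under 80% in either arm, not effects specific to rucaparib; the reference for percent is not stated.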 Some reagents were tested in more than one well and are listed for each. The record does not give: the 100% reference.

gene symbol	technical replicate	viability, normalised (%)	activity call
UBE2I (GeneID 7329)	1	81.7	inactive
UBE2I (GeneID 7329)	2	67.1	active
UBE2I (GeneID 7329)	2	80	active
UBE2I (GeneID 7329)	3	72.7	active
UBE2I (GeneID 7329)	3	68.1	active
SERPINE2 (GeneID 5270)	1	44.9	active
SERPINE2 (GeneID 5270)	2	40.9	active
SERPINE2 (GeneID 5270)	3	58.5	active
TARBP2 (GeneID 6895)	1	58.8	active
TARBP2 (GeneID 6895)	2	54.9	active
TARBP2 (GeneID 6895)	3	52.3	active
EPHA1 (GeneID 2041)	1	99.8	inactive
EPHA1 (GeneID 2041)	2	89	inactive
EPHA1 (GeneID 2041)	3	96.5	inactive
DIDO1 (GeneID 11083)	1	57.8	active
DIDO1 (GeneID 11083)	2	55.5	active
DIDO1 (GeneID 11083)	3	56.9	active
DROSHA (GeneID 29102)	1	62.5	active
DROSHA (GeneID 29102)	2	65.1	active
DROSHA (GeneID 29102)	3	65.3	active
RNF20 (GeneID 56254)	1	71	active
RNF20 (GeneID 56254)	2	69.6	active
RNF20 (GeneID 56254)	3	69.7	active
FAN1 (GeneID 22909)	1	86.6	inactive
FAN1 (GeneID 22909)	2	85.3	inactive
FAN1 (GeneID 22909)	3	66.4	active
CLDN11 (GeneID 5010)	1	58.5	active
CLDN11 (GeneID 5010)	2	58.8	active
CLDN11 (GeneID 5010)	3	48.9	active
NKX2-3 (GeneID 159296)	1	34.4	active
NKX2-3 (GeneID 159296)	2	39.3	active
NKX2-3 (GeneID 159296)	3	40.2	active
CDK20 (GeneID 23552)	1	91.5	inactive
CDK20 (GeneID 23552)	2	57.8	active
CDK20 (GeneID 23552)	3	86.5	inactive
PDE7B (GeneID 27115)	1	62.2	active
PDE7B (GeneID 27115)	2	66.8	active
PDE7B (GeneID 27115)	3	67.3	active
PCBD1 (GeneID 5092)	1	92.4	inactive
PCBD1 (GeneID 5092)	2	75.5	active
PCBD1 (GeneID 5092)	3	105	inactive

Individual results from above.
Result of UBE2I (GeneID 7329), technical replicate 1 in “activity call”: inactive
Entry for CDK20 (GeneID 23552), technical replicate 2 under “activity call”: active
DIDO1 (GeneID 11083), technical replicate 2, activity call: active
For “activity call”, TARBP2 (GeneID 6895), technical replicate 1 shows active
